The whole screen tested about 52,000 sequences, of which about 210 (0.4%) were called active.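 The calls were made as follows: active = gene whose silencing raises cell survival under the drug, median off-target-corrected z-score across its silencing RNAs 2 or more; inactive = the rest.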 The list shows a part of the results.

This assay can be described thus: Resistance to Poly (ADP-Ribose) Polymerase inhibitor: Gene Identification via Genome-wide siRNA Screen. To be noted: mouse BRCA2 R2336H ES cells, olaparib, CellTiter-Glo viability; active compounds read high. Summed up: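 Genome-wide siRNA screen (3 siRNAs/gene, 20 nM) in mouse ES cells carrying hypomorphic BRCA2 R2336H; olaparib 500 nM added 48 h post-transfection, CellTiter-Glo viability 72 h later. Normalized to plate-median negative control; MAD z-scores, gene median, seed-adjusted.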
Turning to GGAGAGAGAAUUUCACCUCTT against Wdr40a, the z-score was inactive: 1.32. For GGCGGAAGAGAAAGACAGCTT against Tle3 the value was inactive: -0.998; for GGUAUUAUGGCUGUGGUCUTT against As3mt, inactive: 1.67.

For GCUUUAGGUCCAAUAAAAUTT against Wdr53, the z-score is inactive: -0.146.

Take GCAACUCUAGUGUAUGGGATT against Slc39a4: the z-score is inactive: -1.38. Next, “GGGUUUUCAAAGACAAGAUTT against 4930488L10Rik”: inactive: 0.786; CCCUUAAAGGGUAGCAUUUTT against Cspg3: inactive: -0.307.

On to “GGCAAUGAAUUUAACAAUCTT against C330011K17Rik”, for which the z-score is inactive: 0.654. For GCCCGAAAAAGAGAACUGATT against Wbp11, the z-score was inactive: -2.08. Regarding GCUUGGCUUCAGCAUAUGCTT against Phox2b, the z-score was inactive: -0.611. Next, GGUGGAAUUUUCAACUUACTT against Nkx3-1: inactive: 0.268; GCCAGUUGAAGGUGAUUAATT against V1rc12: inactive: -1.69; GGAUCCAGUCUAAUAAGAATT against Abcb1a: inactive: -0.9. Next, GGGAGCUUUGAAGAGGCUGTT against Olfr130: inactive: -1.11; GGUAUCAUCUAUAGAGACUTT against Prkch: inactive: 1.86; CUUUGUCAGCCAUGUAUCCTT against Tas2r104: inactive: 0.183.

With CCAGAUUCUAAUACGUACATT against Sec63, the z-score was inactive: 0.369. For “GGCUAAAAUAAAGAAGAAGTT against C230069K22Rik” the value was inactive: -1.06; for GGACAAGGCAGUGUUUCCATT against Sost, inactive: -1.31; for GGGAGCAGAUUUUAAGAGUTT against Rala, inactive: -0.796. For CCAGUGUUUACUCAAACAGTT against Snai2 the value was inactive: -0.0271. Consider “GCUUUUGACGAGCAAGCAGTT against 6820428D13”, for which the z-score is inactive: 0.0297.

For the sequence GGGUGACCCAGAAGAAAUCTT against Gcnt1, the z-score was inactive: 2.01. Turning to GCCUCAUCGUCAUCGCCAATT against Gpbar1, the z-score is inactive: 2.66. For GGCUCUAUAUCCAGCAGCATT against Srst the value was inactive: 0.104; for “CCUGGAUUUUUCCAAACAATT against 2310016E02Rik”, inactive: -0.791. Turning to CGAACAUGUACAACAAAGATT against Cacna2d3, the z-score is inactive: -0.0599. Regarding GCCAUCAACCAAAACAUCCTT against MGC118250, the z-score is inactive: 1.2. Next, “GGUGACAGAUGUUUAUGAGTT against 1810010N17Rik”: inactive: 0.414. Next, GGCGGAAAAAAAAGUAAUATT against Zf: inactive: -1.08; GAUCCAGGAUAAAGAGGGCTT against Ubb: inactive: -2.05; GGAUUCACGUAAGAUUGACTT against Prlpb: inactive: 1.33. For GGACCUGAUCUUCAGGUUUTT against Gpc5 the value was inactive: -0.698; for “GGUUGAUGUGCUACAAGUCTT against 9130221D24Rik”, inactive: -0.351. Take “GCAUGAACGACCCGCUGAATT against 2610014F08Rik”: the z-score is inactive: 2.11. For the sequence “GGAAGAAGUCUGGAGGAUGTT against 1010001D01Rik”, the z-score was inactive: 1.06. For GGGAUAUCAAAGCAAAAAUTT against Rab8a the value was inactive: 1.14; for CGUGACGUAUCUGUGGUCATT against Siat8d, inactive: 0.531; for GGCCAGACACCAACAGAAATT against Adam23, inactive: 0.465. Turning to “GCCUAUCUACUGACCUUUGTT against 1700011C14Rik”, the z-score is inactive: 0.252.

For GGAGUCCUUUCGUUCUAUCTT against Rab2, the z-score was inactive: -0.369. For GGUACUGGACCAAAUUGCUTT against Ppp1r15b the value was inactive: -0.689. For “GGAAUUCCAUUUUCAGAAATT against 4932412H11Rik” the value was inactive: -0.324. Next, GGACAGGAGAGUUAUUUAATT against Btla: inactive: 0.673; GGAUGCUGUUUCCAAAGAATT against Ssr3: inactive: 0.153. As for GCCACUAAGAAUCAGACAUTT against Ryr1, the z-score is inactive: 0.856. For the sequence GGCUUUUGAUCUUAUUGAGTT against Kpna1, the z-score was inactive: -0.222.

Turning to CCUCAAUGGUAGGUAAUUUTT against Olfr1090, the z-score was inactive: -1.99. In the case of GCUCAAGUUAAUCUGUUGUTT against Ywhae, the z-score was inactive: -0.698. Next, GCUUGAAUACCAUCAGUCATT against BC060737: inactive: -1.43; GCUUACAGCACAACAACAUTT against Ubap1: inactive: -1.61. For “CCGCACAGACCAUAGUAGATT against 1700121L12Rik” the value was inactive: 0.0169. Next, CCUGACCAUACUAAUAAAUTT against Rala: inactive: 2.13.

GGGUCUAGCAGAUUACAAATT against Gjb6: the z-score is inactive: 0.0867. With GGGAAUUUGGUAUCAAUUUTT against Epgn, the z-score was inactive: 2.77. Next, GGCAGGCAAACAGUGAUCATT against Lsm4: inactive: -2.56; GCUUAGUAAUGCUAACAUUTT against Parg: inactive: 2.29; “GGCACUACCACAAGUAUAGTT against 1700073E17Rik”: inactive: -1.94. For CGAGGCCUGGAAGGACUUUTT against Klhl8 the value was inactive: -0.511; for GUUUCAAAUCCCAGAGAAGTT against Defb7, inactive: 0.17; for “CCUACAUCAAUAGGAGUUUTT against 2810457I06Rik”, inactive: 1.92. For “GGGUCAAAGUCAGACUAUGTT against 2610019P18Rik” the value was inactive: 0.639. Turning to “CCAUAGUUGAUGGAAGAUATT against 3110001K24Rik”, the z-score is inactive: 0.409. For GCAGACGGUGGCAUAUUCUTT against Rfx4, the z-score is inactive: -0.0759. Next, GGUCAGACAGAGUCACUGATT against Magea2: inactive: -0.918. Next, GCUUGUUACAGAUGAAUGUTT against Nt5c3: inactive: -0.242; “CCCUGAAACCUGAUCGGAATT against 1110025F24Rik”: inactive: -0.559; GGUUGCAUCACAGCGUAUATT against Plekhe1: inactive: 0.0124.

On to GGCUCUCAACUAAAGCAGCTT against Ssfa1, for which the z-score is inactive: -2.89.

For the sequence GGAGGAAAAUCAGACAGGATT against Olfr1419, the z-score is inactive: 0.702.

Consider GGGUUUGGAAACUACAUUUTT against Phka2, for which the z-score was inactive: 0.646.

For GGUAUAUUGUGCCAGCACATT against Olfr705, the z-score was inactive: 0.931.

Turning to “GGCAGUUUUGCAUGUGUGATT against 1600021C16Rik”, the z-score was inactive: -1.13. For UGUUACUGGACUCUCCACATT against Olfr320 the value was inactive: -1.3. For GCCCUAGAUCAGGAGAUCATT against Rps17 the value was inactive: -2.58; for “GGACCACUCGCUUUUGGGUTT against 6430527G18Rik”, inactive: 0.813; for GGACUUAGGUUUGUUUAAATT against Frat1, inactive: 0.466.

As to GGAGGAAACUAUUAUGACATT against BC043118, the z-score was inactive: 0.211. For “GGAAUUGUGCUGAAAAAGATT against 9130011J15Rik” the value was inactive: -0.135; for CCACCUCAAGUCAAAGACUTT against Cggbp1, inactive: -0.394; for “CCUUGAUACCUUUCCAUGUTT against 9130008F23Rik”, inactive: 2.13.

Consider GCUACGUUCAGUUCCAUUGTT against LOC219026, for which the z-score was inactive: -0.543. For “CGAACUGAAGGUUUUCAAUTT against D2Ertd750e” the value was inactive: -0.917; for GGUCGUCGUGAGAUCUUAUTT against Gpr10, inactive: -0.402. For GGACCAAACGAUUUCUCACTT against Olfr284 the value was inactive: 0.047; for UGUUGUUUUACCUGUGCCUTT against LOC330776, inactive: 1.32.

For the sequence “GCCUUAAUUUAUCCGAAAGTT against 2810413I22Rik”, the z-score was inactive: 2.34. For GGGAAAAAGAAAGCCCUUGTT against Olfr706 the value was inactive: 0.0739; for “GCCCAUACUUCCUCUUUGATT against 9330128H10Rik”, inactive: -0.513; for GGAAAAGAAGACAUUUCUCTT against Osbpl8, inactive: 0.399. Next, GGGAAAGGAUUUUUACAUUTT against Ctdsp1: inactive: 0.709; GGAUAUUACACCUACUUCUTT against Mmp24: inactive: -0.499.

As for “GGGUUUGAAUGUUAUGACATT against 4930507C10Rik”, the z-score was inactive: -0.813. As for GGAACCAAUCCAUAUUUGATT against Tnks, the z-score was inactive: 0.105. For “GGACGCAUGAUGUGGGUUCTT against 5730578N08Rik” the value was inactive: -0.754; for CGGAUUCAGACCAAUUGGUTT against Hkr2, inactive: 0.0697; for GCUCCACCAAACUAAUGCGTT against Polrmt, inactive: 0.848. Next, CCAUAGACUUCAUUGUACATT against Lipf: inactive: 1.1.

Regarding CCACUCAAUCCUUAGCAAGTT against Abi2, the z-score was inactive: 0.352. For “GCUGUGGAACUUAUGUUUUTT against 6230409E13Rik” the value was inactive: -0.139. For GGAUACAGAAGGUUUUCUUTT against Abcd4 the value was inactive: 0.129; for CCCAGCUCAGGUUUCUAUGTT against Dact2, inactive: 0.315; for GCCGAUGUCAGUGGUUAAATT against Bmx, inactive: 0.0782.
